Consider two compounds from the M2OR odorant receptor database.

Amino acid sequences for entries named in this document (tags omitted). Chains listed by the source or under a name are the forms on record and can include a tag or linker.
UniProt Q8VH16, as listed by the source: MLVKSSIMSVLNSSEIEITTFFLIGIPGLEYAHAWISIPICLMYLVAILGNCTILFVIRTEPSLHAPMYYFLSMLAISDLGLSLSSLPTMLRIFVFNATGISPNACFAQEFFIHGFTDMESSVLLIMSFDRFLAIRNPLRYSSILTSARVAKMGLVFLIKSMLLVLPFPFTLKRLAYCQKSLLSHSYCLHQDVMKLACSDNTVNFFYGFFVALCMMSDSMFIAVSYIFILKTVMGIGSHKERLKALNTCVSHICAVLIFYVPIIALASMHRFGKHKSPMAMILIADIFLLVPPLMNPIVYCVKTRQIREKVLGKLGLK
UniProt Q8VH20, as listed by the source: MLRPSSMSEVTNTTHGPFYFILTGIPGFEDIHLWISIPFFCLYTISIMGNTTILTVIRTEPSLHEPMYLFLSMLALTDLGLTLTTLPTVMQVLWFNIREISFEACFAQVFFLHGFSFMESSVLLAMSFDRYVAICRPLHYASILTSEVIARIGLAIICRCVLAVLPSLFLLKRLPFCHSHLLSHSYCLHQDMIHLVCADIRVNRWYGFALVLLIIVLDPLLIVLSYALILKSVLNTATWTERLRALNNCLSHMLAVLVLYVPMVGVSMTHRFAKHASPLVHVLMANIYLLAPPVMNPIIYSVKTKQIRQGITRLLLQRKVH
UniProt Q8VH21, as listed by the source: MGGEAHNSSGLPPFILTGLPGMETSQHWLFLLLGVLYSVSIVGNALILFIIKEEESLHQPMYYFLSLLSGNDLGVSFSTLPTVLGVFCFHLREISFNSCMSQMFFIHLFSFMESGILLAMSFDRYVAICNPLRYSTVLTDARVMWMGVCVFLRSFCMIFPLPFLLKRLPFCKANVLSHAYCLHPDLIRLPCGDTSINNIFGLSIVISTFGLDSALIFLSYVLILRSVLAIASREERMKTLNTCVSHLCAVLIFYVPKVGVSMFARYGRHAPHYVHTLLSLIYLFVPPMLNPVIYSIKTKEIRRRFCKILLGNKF
UniProt Q920P1, as listed by the source: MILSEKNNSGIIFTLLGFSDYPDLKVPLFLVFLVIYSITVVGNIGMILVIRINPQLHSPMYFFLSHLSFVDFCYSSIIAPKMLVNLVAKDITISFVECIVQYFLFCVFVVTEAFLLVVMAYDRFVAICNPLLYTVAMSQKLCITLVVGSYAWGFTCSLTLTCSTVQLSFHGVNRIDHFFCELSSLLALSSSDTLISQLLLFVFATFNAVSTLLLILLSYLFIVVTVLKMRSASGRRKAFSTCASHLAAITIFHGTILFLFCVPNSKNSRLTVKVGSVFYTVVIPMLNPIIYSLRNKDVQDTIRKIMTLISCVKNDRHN
UniProt Q920P2, as listed by the source: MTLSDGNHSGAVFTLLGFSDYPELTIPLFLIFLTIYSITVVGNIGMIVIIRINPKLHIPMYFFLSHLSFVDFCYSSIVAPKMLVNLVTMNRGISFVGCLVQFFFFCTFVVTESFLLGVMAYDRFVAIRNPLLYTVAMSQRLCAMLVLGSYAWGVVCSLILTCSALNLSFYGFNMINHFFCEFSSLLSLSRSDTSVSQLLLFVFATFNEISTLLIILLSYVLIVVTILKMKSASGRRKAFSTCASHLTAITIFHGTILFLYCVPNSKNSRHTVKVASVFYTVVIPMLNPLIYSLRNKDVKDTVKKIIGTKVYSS
UniProt Q924H8, as listed by the source: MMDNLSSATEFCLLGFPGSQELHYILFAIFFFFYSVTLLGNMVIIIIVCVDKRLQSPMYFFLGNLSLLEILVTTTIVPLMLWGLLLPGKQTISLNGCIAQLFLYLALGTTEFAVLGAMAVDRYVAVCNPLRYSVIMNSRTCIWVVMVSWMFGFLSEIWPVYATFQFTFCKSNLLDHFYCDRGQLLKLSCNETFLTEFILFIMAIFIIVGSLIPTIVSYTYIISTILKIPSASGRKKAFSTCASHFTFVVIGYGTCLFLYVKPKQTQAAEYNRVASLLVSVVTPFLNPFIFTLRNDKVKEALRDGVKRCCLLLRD

Holding throughout (conditions): stereoisomer not certain
One test addresses UniProt Q8VH16. The method in brief:
(§1)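 Values were gathered from published papers (main text and supplementary material), with extra details requested from the original authors when needed, and checked for typos and inconsistencies. Each receptor–molecule pair is called responsive (active) if the original authors judged the measured signal statistically different from baseline, and non-responsive (inactive) otherwise. Assay methods varied by source, often transient mammalian cell-line luciferase assays. Recorded details include cell line, G-protein, co-transfected protein and tags.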

Another test has as its target UniProt Q8VH20. In a few lines:
as §1

A further test concerns the target UniProt Q8VH21. In a few lines:
as §1

The target in a further test is UniProt Q920P1. The method in brief:
as §1

In a further test the target is UniProt Q920P2. The method in brief: as §1
In a further test the target is UniProt Q924H8. The method in brief:
as §1

The list shows a part of the results, in another mix than the full data. The calls were merged from several studies; some rest on single wells. The list shows a part of the results.

On to `CCOc1cc(C=O)ccc1O`, for which the “odorant receptor agonist call” value in the test with UniProt Q8VH16, with UniProt Q8VH20, with UniProt Q8VH21 and with UniProt Q924H8 was “inactive” each time. Besides, the “odorant receptor agonist call” value in the test with UniProt Q920P1 and with UniProt Q920P2 was “active” throughout.
In the case of `CCC(C)=O`, the “odorant receptor agonist call” value with UniProt Q8VH16, with UniProt Q8VH20, in the test with UniProt Q8VH21 and in the test with UniProt Q924H8 was “inactive” each time.
